Experimental data from paper PMC2675061.
No constants are given. Whether binding was seen depends on the method and setting. Some entries that bind do so weakly or less than the wild type.

Molecular target: T1, ERK2, P63086
T1 chain: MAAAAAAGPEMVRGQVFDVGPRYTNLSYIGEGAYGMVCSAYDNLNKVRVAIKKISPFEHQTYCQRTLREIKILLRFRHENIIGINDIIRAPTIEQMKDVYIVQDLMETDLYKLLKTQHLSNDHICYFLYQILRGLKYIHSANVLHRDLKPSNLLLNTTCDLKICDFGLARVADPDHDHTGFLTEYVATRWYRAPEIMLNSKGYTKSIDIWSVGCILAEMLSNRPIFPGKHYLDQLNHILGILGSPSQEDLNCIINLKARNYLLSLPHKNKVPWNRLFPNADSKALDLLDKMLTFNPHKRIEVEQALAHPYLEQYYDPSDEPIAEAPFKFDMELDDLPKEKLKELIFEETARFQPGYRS
Experiment: cross-linking; BS3 (0.1-1 mM), 100 mM HEPES pH 7.5, 300 mM NaCl, 2.2-5.54 µg/µl complex, 30-120 min, 0-25 °C, no ATP; ERK2 alone, PTP-SL alone and the complex in parallel under the same conditions; products analysed by SDS-PAGE, SEC in SDS and DTT, MALDI-TOF of the product and of its tryptic peptides; both purified
Conditions: remark: other sources report otherwise

binding: binds
B1: ERK2, P63086 1-358 (enzyme)
chain: MAAAAAAGPEMVRGQVFDVGPRYTNLSYIGEGAYGMVCSAYDNLNKVRVAIKKISPFEHQTYCQRTLREIKILLRFRHENIIGINDIIRAPTIEQMKDVYIVQDLMETDLYKLLKTQHLSNDHICYFLYQILRGLKYIHSANVLHRDLKPSNLLLNTTCDLKICDFGLARVADPDHDHTGFLTEYVATRWYRAPEIMLNSKGYTKSIDIWSVGCILAEMLSNRPIFPGKHYLDQLNHILGILGSPSQEDLNCIINLKARNYLLSLPHKNKVPWNRLFPNADSKALDLLDKMLTFNPHKRIEVEQALAHPYLEQYYDPSDEPIAEAPFKFDMELDDLPKEKLKELIFEETARFQPGYRS
